Results are given in words; binding and its absence hold for the method and conditions named. In cells and extracts the contact can be indirect. A result given as binding can be weak or reduced; the word gives no strength.
Experiments:
Test in all cases: co-purification; StXPB variants co-expressed with Bax1^ΔC in E. coli; Ni-NTA by the His8 tag on StXPB, tag removed, HiTrap SP FF ion exchange, Superdex 200 gel filtration; samples shown by SDS-PAGE
[1] = target: StXPB mutant with R205A/D206A/D207A substitutions (RED motif) (Sulfurisphaera tokodaii)
[2] = target: StXPB mutant with deletion of residues 258 to 299 (ΔThM2) (Sulfurisphaera tokodaii)
[3] = target: StXPB mutant with deletion of residues 270 to 280 (ΔThM1) (Sulfurisphaera tokodaii)

binding [1]: binds
binding [2]: binds
binding [3]: binds
B1: StBax1^ΔC (truncated Bax1 without the C-terminal domain, residues 2-373) (domain or fragment, UniProt Q970I1 2-373)
chain: LPWELARFSIVKDEVLPHFATNEDLDLANEIISLFKAGKKLGEIDEEIEYLEKIYDHKLVRAFVKLLTRLCEFELDSPIPPIQIRRELFKYGPVLDEKEREDIIQKVSKKLGADIMRFVFSDLDEEKKIIKAPTISAEDLIRWYNLSLLQTLLFKAYKLTVYVSSNWKEIIRRAKWLGLMYFAYDKPLRFEFLGPATLVKLTEKYGRNLAVLLQFIISSQNWKIEAELVLGKKFKRVYKLKLANFKELKELVIDEKRFDSSVEEKFYKDFTNVIKGWKIIREPEPLVVDNRVFIPDFLVEKGNLKVYVEIVGFWTKEYIKEKLDKLKKVKYPILILLNEELGKEKFNGMNVITYKRKIDISLVYKWLRELEN

From article PMC7672443, “Structural basis of the XPB helicase–Bax1 nuclease complex interacting with the repair bubble DNA” (Nucleic Acids Research, 2020)
